From patent US20120108796A1
Results are given in words; binding and its absence hold for the method and conditions named. Some binding calls cover weakened binding; strength is not graded here.

Protein sequences, listed by entry. Tags and fused reporters are not part of them. Residues count along the entry.
UniProt P10646, residues 29-304: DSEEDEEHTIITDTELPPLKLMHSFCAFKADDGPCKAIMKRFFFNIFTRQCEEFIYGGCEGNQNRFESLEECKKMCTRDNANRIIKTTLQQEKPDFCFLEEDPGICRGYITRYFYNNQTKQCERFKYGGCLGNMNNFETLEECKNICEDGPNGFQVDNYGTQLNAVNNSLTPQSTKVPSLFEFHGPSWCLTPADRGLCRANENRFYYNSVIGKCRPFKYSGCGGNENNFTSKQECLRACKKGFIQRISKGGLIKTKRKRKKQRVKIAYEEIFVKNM
UniProt O54819, residues 29-289: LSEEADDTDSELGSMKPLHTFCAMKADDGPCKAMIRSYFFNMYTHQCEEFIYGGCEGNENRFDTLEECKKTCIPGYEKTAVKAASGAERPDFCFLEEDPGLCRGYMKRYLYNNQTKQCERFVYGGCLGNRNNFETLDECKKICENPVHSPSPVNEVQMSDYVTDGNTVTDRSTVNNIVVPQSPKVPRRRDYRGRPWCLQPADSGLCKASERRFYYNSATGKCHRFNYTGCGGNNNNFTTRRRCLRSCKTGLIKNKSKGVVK

Key:
[1] = biological target: human TFPI (tissue factor pathway inhibitor) (human) (UniProt P10646); experiment: SPR (Biacore)
[2] = biological target: mouse TFPI (tissue factor pathway inhibitor) (mouse) (UniProt O54819); experiment: SPR (Biacore)

binding [1] | binding [2] | Binder
binds |  | 2A8 LC N51V (Fab, V domains shown) VH: QVQLVESGGGLVQPGGSLRLSCAASGFTFRSYGMSWVRQAPGKGLEWVSSIRGSSSSTYYADSVKGRFTISRDNSKNTLYLQMNSLRAEDTAVYYCARKYRYWFDYWGQGTLVTVSS VL: DIELTQPPSVSVAPGQTARISCSGDNLRNYYAHWYQQKPGQAPVVVIYYDVNRPSGIPERFSGSNSGNTATLTISGTQAEDEADYYCQSWDDGVPVFGGGTKLTVLG
binds |  | 2A8 LC Y48F (Fab, V domains shown) VH: QVQLVESGGGLVQPGGSLRLSCAASGFTFRSYGMSWVRQAPGKGLEWVSSIRGSSSSTYYADSVKGRFTISRDNSKNTLYLQMNSLRAEDTAVYYCARKYRYWFDYWGQGTLVTVSS VL: DIELTQPPSVSVAPGQTARISCSGDNLRNYYAHWYQQKPGQAPVVVIFYDNNRPSGIPERFSGSNSGNTATLTISGTQAEDEADYYCQSWDDGVPVFGGGTKLTVLG
binds |  | 2A8 LC D91K (Fab, V domains shown) VH: QVQLVESGGGLVQPGGSLRLSCAASGFTFRSYGMSWVRQAPGKGLEWVSSIRGSSSSTYYADSVKGRFTISRDNSKNTLYLQMNSLRAEDTAVYYCARKYRYWFDYWGQGTLVTVSS VL: DIELTQPPSVSVAPGQTARISCSGDNLRNYYAHWYQQKPGQAPVVVIYYDNNRPSGIPERFSGSNSGNTATLTISGTQAEDEADYYCQSWKDGVPVFGGGTKLTVLG
binds |  | 2A8 LC D91L (Fab, V domains shown) VH: QVQLVESGGGLVQPGGSLRLSCAASGFTFRSYGMSWVRQAPGKGLEWVSSIRGSSSSTYYADSVKGRFTISRDNSKNTLYLQMNSLRAEDTAVYYCARKYRYWFDYWGQGTLVTVSS VL: DIELTQPPSVSVAPGQTARISCSGDNLRNYYAHWYQQKPGQAPVVVIYYDNNRPSGIPERFSGSNSGNTATLTISGTQAEDEADYYCQSWLDGVPVFGGGTKLTVLG
binds | binds | 2A8 LC D91W (Fab, V domains shown) VH: QVQLVESGGGLVQPGGSLRLSCAASGFTFRSYGMSWVRQAPGKGLEWVSSIRGSSSSTYYADSVKGRFTISRDNSKNTLYLQMNSLRAEDTAVYYCARKYRYWFDYWGQGTLVTVSS VL: DIELTQPPSVSVAPGQTARISCSGDNLRNYYAHWYQQKPGQAPVVVIYYDNNRPSGIPERFSGSNSGNTATLTISGTQAEDEADYYCQSWWDGVPVFGGGTKLTVLG
binds | binds | 4B7 HC D62R (Fab, V domains shown) VH: QVQLQQSGPGLVKPSQTLSLTCAISGDSVSSNSAAWSWIRQSPGRGLEWLGIIYKRSKWYNRYAVSVKSRITINPDTSKNQFSLQLNSVTPEDTAVYYCARWHSDKHWGFDYWGQGTLVTVSS VL: DIVMTQSPLSLPVTPGEPASISCRSSQSLVFSDGNTYLNWYLQKPGQSPQLLIYKGSNRASGVPDRFSGSGSGTDFTLKISRVEAEDVGVYYCQQYDSYPLTFGQGTKVEIKR
binds | binds | 2A8-127 (Fab, V domains shown) VH: QVQLVESGGGLVQPGGSLRLSCAASGFTFRSYGMDWVRQAPGKGLEWVSSIRGSSSSTYYADSVKGRFTISRDNSKNTLYLQMNSLRAEDTAVYYCARLYRYWFDYWGQGTLVTVSS VL: DIELTQPPSVSVAPGQTARISCSGDNLRNYYAHWYQQKPGQAPVVVIFYDVNRPSDIPERFSGSNSGNTATLTISGTQAEDEADYYCQSWDDGVPWFGGGTKLTVLG
binds | binds | 2A8-143 (Fab, V domains shown) VH: QVQLVESGGGLVQPGGSLRLSCAASGFTFRSYGMDWVRQAPGKGLEWVSSIRGSRSSTYYADSVKGRFTISRDNSKNTLYLQMNSLRAEDTAVYYCARLYRYWFDYWGQGTLVTVSS VL: DIELTQPPSVSVAPGQTARISCSGDNLRNYYAHWYQQKPGQAPVVVIFYDVNRPSGIPERFSGSNSGNTATLTISGTQAEDEADYYCQSWLDGVPWFGGGTKLTVLG
binds | binds | 2A8-200 (Fab, V domains shown) VH: QVQLVESGGGLVQPGGSLRLSCAASGFTFRSYGMDWVRQAPGKGLEWVSSIRGSRSSTYYADSVKGRFTISRDNSKNTLYLQMNSLRAEDTAVYYCARLYRYWFDYWGQGTLVTVSS VL: DIELTQPPSVSVAPGQTARISCSGDNLRNYYAHWYQQKPGQAPVVVIFYDVNRPSGIPERFSGSNSGNTATLTISGTQAEDEADYYCQSWWDGVPVFGGGTKLTVLG
binds | binds | 2A8-216 (Fab, V domains shown) VH: QVQLVESGGGLVQPGGSLRLSCAASGFTFRVYGMSWVRQAPGKGLEWVSSDRGSRSSTYYADSVKGRFTISRDNSKNTLYLQMNSLRAEDTAVYYCARVYRYWFDYWGQGTLVTVSS VL: DIELTQPPSVSVAPGQTARISCSGDNLRNYYAHWYQQKPGQAPVVVIFYDNNRPSGIPERFSGSNSGNTATLTISGTQAEDEADYYCQSWLDGVPWFGGGTKLTVLG

The next lines start with the binder.

Binder | binding [1] | binding [2]
2A8 HC G33P (Fab, V domains shown) VH: QVQLVESGGGLVQPGGSLRLSCAASGFTFRSYPMSWVRQAPGKGLEWVSSIRGSSSSTYYADSVKGRFTISRDNSKNTLYLQMNSLRAEDTAVYYCARKYRYWFDYWGQGTLVTVSS VL: DIELTQPPSVSVAPGQTARISCSGDNLRNYYAHWYQQKPGQAPVVVIYYDNNRPSGIPERFSGSNSGNTATLTISGTQAEDEADYYCQSWDDGVPVFGGGTKLTVLG | binds | binds
2A8 HC S31P (Fab, V domains shown) VH: QVQLVESGGGLVQPGGSLRLSCAASGFTFRPYGMSWVRQAPGKGLEWVSSIRGSSSSTYYADSVKGRFTISRDNSKNTLYLQMNSLRAEDTAVYYCARKYRYWFDYWGQGTLVTVSS VL: DIELTQPPSVSVAPGQTARISCSGDNLRNYYAHWYQQKPGQAPVVVIYYDNNRPSGIPERFSGSNSGNTATLTISGTQAEDEADYYCQSWDDGVPVFGGGTKLTVLG | binds | binds
2A8 HC S31V (Fab, V domains shown) VH: QVQLVESGGGLVQPGGSLRLSCAASGFTFRVYGMSWVRQAPGKGLEWVSSIRGSSSSTYYADSVKGRFTISRDNSKNTLYLQMNSLRAEDTAVYYCARKYRYWFDYWGQGTLVTVSS VL: DIELTQPPSVSVAPGQTARISCSGDNLRNYYAHWYQQKPGQAPVVVIYYDNNRPSGIPERFSGSNSGNTATLTISGTQAEDEADYYCQSWDDGVPVFGGGTKLTVLG | binds | binds
2A8 HC S35D (Fab, V domains shown) VH: QVQLVESGGGLVQPGGSLRLSCAASGFTFRSYGMDWVRQAPGKGLEWVSSIRGSSSSTYYADSVKGRFTISRDNSKNTLYLQMNSLRAEDTAVYYCARKYRYWFDYWGQGTLVTVSS VL: DIELTQPPSVSVAPGQTARISCSGDNLRNYYAHWYQQKPGQAPVVVIYYDNNRPSGIPERFSGSNSGNTATLTISGTQAEDEADYYCQSWDDGVPVFGGGTKLTVLG | binds | binds
2A8 HC I51E (Fab, V domains shown) VH: QVQLVESGGGLVQPGGSLRLSCAASGFTFRSYGMSWVRQAPGKGLEWVSSERGSSSSTYYADSVKGRFTISRDNSKNTLYLQMNSLRAEDTAVYYCARKYRYWFDYWGQGTLVTVSS VL: DIELTQPPSVSVAPGQTARISCSGDNLRNYYAHWYQQKPGQAPVVVIYYDNNRPSGIPERFSGSNSGNTATLTISGTQAEDEADYYCQSWDDGVPVFGGGTKLTVLG | binds | 
2A8 HC S54F (Fab, V domains shown) VH: QVQLVESGGGLVQPGGSLRLSCAASGFTFRSYGMSWVRQAPGKGLEWVSSIRGFSSSTYYADSVKGRFTISRDNSKNTLYLQMNSLRAEDTAVYYCARKYRYWFDYWGQGTLVTVSS VL: DIELTQPPSVSVAPGQTARISCSGDNLRNYYAHWYQQKPGQAPVVVIYYDNNRPSGIPERFSGSNSGNTATLTISGTQAEDEADYYCQSWDDGVPVFGGGTKLTVLG | binds | binds
2A8 HC S55R (Fab, V domains shown) VH: QVQLVESGGGLVQPGGSLRLSCAASGFTFRSYGMSWVRQAPGKGLEWVSSIRGSRSSTYYADSVKGRFTISRDNSKNTLYLQMNSLRAEDTAVYYCARKYRYWFDYWGQGTLVTVSS VL: DIELTQPPSVSVAPGQTARISCSGDNLRNYYAHWYQQKPGQAPVVVIYYDNNRPSGIPERFSGSNSGNTATLTISGTQAEDEADYYCQSWDDGVPVFGGGTKLTVLG | binds | 
2A8 HC K99L (Fab, V domains shown) VH: QVQLVESGGGLVQPGGSLRLSCAASGFTFRSYGMSWVRQAPGKGLEWVSSIRGSSSSTYYADSVKGRFTISRDNSKNTLYLQMNSLRAEDTAVYYCARLYRYWFDYWGQGTLVTVSS VL: DIELTQPPSVSVAPGQTARISCSGDNLRNYYAHWYQQKPGQAPVVVIYYDNNRPSGIPERFSGSNSGNTATLTISGTQAEDEADYYCQSWDDGVPVFGGGTKLTVLG | binds | binds
2A8 HC K99V (Fab, V domains shown) VH: QVQLVESGGGLVQPGGSLRLSCAASGFTFRSYGMSWVRQAPGKGLEWVSSIRGSSSSTYYADSVKGRFTISRDNSKNTLYLQMNSLRAEDTAVYYCARVYRYWFDYWGQGTLVTVSS VL: DIELTQPPSVSVAPGQTARISCSGDNLRNYYAHWYQQKPGQAPVVVIYYDNNRPSGIPERFSGSNSGNTATLTISGTQAEDEADYYCQSWDDGVPVFGGGTKLTVLG | binds | 
2A8 LC A32N (Fab, V domains shown) VH: QVQLVESGGGLVQPGGSLRLSCAASGFTFRSYGMSWVRQAPGKGLEWVSSIRGSSSSTYYADSVKGRFTISRDNSKNTLYLQMNSLRAEDTAVYYCARKYRYWFDYWGQGTLVTVSS VL: DIELTQPPSVSVAPGQTARISCSGDNLRNYYNHWYQQKPGQAPVVVIYYDNNRPSGIPERFSGSNSGNTATLTISGTQAEDEADYYCQSWDDGVPVFGGGTKLTVLG | binds | 
2A8 HC I51D (Fab, V domains shown) VH: QVQLVESGGGLVQPGGSLRLSCAASGFTFRSYGMSWVRQAPGKGLEWVSSDRGSSSSTYYADSVKGRFTISRDNSKNTLYLQMNSLRAEDTAVYYCARKYRYWFDYWGQGTLVTVSS VL: DIELTQPPSVSVAPGQTARISCSGDNLRNYYAHWYQQKPGQAPVVVIYYDNNRPSGIPERFSGSNSGNTATLTISGTQAEDEADYYCQSWDDGVPVFGGGTKLTVLG | binds | 
